{"source": "PubChem BioAssay AID1224828 (NIAID, 2016)", "test": "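Regulators linking TLR4 signalling to p65 nuclear translocation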 (primary screen)", "system": "mouse RAW264.7 G9 macrophage reporter cells (GFP-p65, Tnf promoter-mCherry)", "knock-down reagent": "siRNA pool against mouse genes, 100 nM", "time to read-out": "2 days siRNA transfection, then 40 min LPS before fixation", "conditions": "LPS (Salmonella minnesota R595) at 10 ng/ml", "measurement": "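Imaged p65 nuclear translocation ratio, normalised to the plate median, converted to robust z-scores and averaged across two replicates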", "scale": "p65 translocation robust z-score: higher = more nuclear NF-kappaB p65 after LPS than the plate median; nuclear/cytoplasmic p65 ratio: higher = more nuclear NF-kappaB p65", "hit rule": "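Active if robust z is above 3.3 (negative regulators) or below -1.56, the Tlr4 control median (positive regulators); activity score 50 or more; control wells not called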", "meaning of the calls": "active = hit (p65 shift raised or lowered); inactive = no clear change", "note": "In all, the deposit lists about 17,000 reagents; this is a part drawn at random. 762 of them (4.5%) were called active. 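Active calls include both raised and lowered p65 entry, mostly lowered; wells with fewer than 50 cells lack a z-score.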 The raw values are shown without normalisation."}
{"gene":"Tapbp","p65 translocation robust z-score":-0.12,"nuclear/cytoplasmic p65 ratio, rep 1":1.4,"nuclear/cytoplasmic p65 ratio, rep 2":1.6,"low cell count flag":"enough cells to score","outcome":"inactive"}
{"gene":"Arel1","p65 translocation robust z-score":-0.96,"nuclear/cytoplasmic p65 ratio, rep 1":1.41,"nuclear/cytoplasmic p65 ratio, rep 2":1.31,"low cell count flag":"enough cells to score","outcome":"inactive"}
{"gene":"Rusc1","p65 translocation robust z-score":0.17,"nuclear/cytoplasmic p65 ratio, rep 1":1.47,"nuclear/cytoplasmic p65 ratio, rep 2":1.22,"low cell count flag":"enough cells to score","outcome":"inactive"}
{"gene":"Tstd2","nuclear/cytoplasmic p65 ratio, rep 1":1.92,"nuclear/cytoplasmic p65 ratio, rep 2":1.88,"low cell count flag":"fewer than 50 cells per well; well left out of scoring","outcome":"inactive"}
{"gene":"Enc1","p65 translocation robust z-score":0.19,"nuclear/cytoplasmic p65 ratio, rep 1":1.51,"nuclear/cytoplasmic p65 ratio, rep 2":1.38,"low cell count flag":"enough cells to score","outcome":"inactive"}
{"gene":"Phc3","p65 translocation robust z-score":0.27,"nuclear/cytoplasmic p65 ratio, rep 1":1.48,"nuclear/cytoplasmic p65 ratio, rep 2":1.27,"low cell count flag":"enough cells to score","outcome":"inactive"}
{"gene":"Btn1a1","p65 translocation robust z-score":-0.32,"nuclear/cytoplasmic p65 ratio, rep 1":1.61,"nuclear/cytoplasmic p65 ratio, rep 2":1.53,"low cell count flag":"enough cells to score","outcome":"inactive"}
{"gene":"Meak7","p65 translocation robust z-score":-0.69,"nuclear/cytoplasmic p65 ratio, rep 1":1.47,"nuclear/cytoplasmic p65 ratio, rep 2":1.55,"low cell count flag":"enough cells to score","outcome":"inactive"}
{"gene":"Rnd2","p65 translocation robust z-score":-0.13,"nuclear/cytoplasmic p65 ratio, rep 1":1.51,"nuclear/cytoplasmic p65 ratio, rep 2":1.49,"low cell count flag":"enough cells to score","outcome":"inactive"}
{"gene":"Skint9","p65 translocation robust z-score":0.78,"nuclear/cytoplasmic p65 ratio, rep 1":1.47,"nuclear/cytoplasmic p65 ratio, rep 2":1.64,"low cell count flag":"enough cells to score","outcome":"inactive"}
{"gene":"Pitpnm3","p65 translocation robust z-score":0.99,"nuclear/cytoplasmic p65 ratio, rep 1":1.83,"nuclear/cytoplasmic p65 ratio, rep 2":1.51,"low cell count flag":"enough cells to score","outcome":"inactive"}

Already shown: entries from further up.
{"gene":"Rusc1","p65 translocation robust z-score":0.17,"nuclear/cytoplasmic p65 ratio, rep 1":1.47,"nuclear/cytoplasmic p65 ratio, rep 2":1.22,"low cell count flag":"enough cells to score","outcome":"inactive"}
{"gene":"Tstd2","nuclear/cytoplasmic p65 ratio, rep 1":1.92,"nuclear/cytoplasmic p65 ratio, rep 2":1.88,"low cell count flag":"fewer than 50 cells per well; well left out of scoring","outcome":"inactive"}

More reagents:
{"gene":"Ulk2","p65 translocation robust z-score":0.48,"nuclear/cytoplasmic p65 ratio, rep 1":1.68,"nuclear/cytoplasmic p65 ratio, rep 2":1.44,"low cell count flag":"enough cells to score","outcome":"inactive"}
{"gene":"Tnni2","p65 translocation robust z-score":-0.88,"nuclear/cytoplasmic p65 ratio, rep 1":1.43,"nuclear/cytoplasmic p65 ratio, rep 2":1.36,"low cell count flag":"enough cells to score","outcome":"inactive"}
{"gene":"Tas2r120","nuclear/cytoplasmic p65 ratio, rep 1":1.23,"nuclear/cytoplasmic p65 ratio, rep 2":1.23,"low cell count flag":"fewer than 50 cells per well; well left out of scoring","outcome":"inactive"}
{"gene":"Bag3","p65 translocation robust z-score":-0.78,"nuclear/cytoplasmic p65 ratio, rep 1":1.51,"nuclear/cytoplasmic p65 ratio, rep 2":1.49,"low cell count flag":"enough cells to score","outcome":"inactive"}
{"gene":"Unc5b","p65 translocation robust z-score":0.09,"nuclear/cytoplasmic p65 ratio, rep 1":1.53,"nuclear/cytoplasmic p65 ratio, rep 2":1.51,"low cell count flag":"enough cells to score","outcome":"inactive"}
{"gene":"Cpped1","p65 translocation robust z-score":0.64,"nuclear/cytoplasmic p65 ratio, rep 1":1.59,"nuclear/cytoplasmic p65 ratio, rep 2":1.54,"low cell count flag":"enough cells to score","outcome":"inactive"}
{"gene":"Mrgprb3","p65 translocation robust z-score":1.22,"nuclear/cytoplasmic p65 ratio, rep 1":2,"nuclear/cytoplasmic p65 ratio, rep 2":1.76,"low cell count flag":"enough cells to score","outcome":"inactive"}
{"gene":"Agbl3","p65 translocation robust z-score":2.72,"nuclear/cytoplasmic p65 ratio, rep 1":1.79,"nuclear/cytoplasmic p65 ratio, rep 2":1.93,"low cell count flag":"enough cells to score","outcome":"inactive"}
{"gene":"Zfp422","p65 translocation robust z-score":0.18,"nuclear/cytoplasmic p65 ratio, rep 1":1.56,"nuclear/cytoplasmic p65 ratio, rep 2":1.36,"low cell count flag":"enough cells to score","outcome":"inactive"}
{"gene":"Zfp319","p65 translocation robust z-score":-0.21,"nuclear/cytoplasmic p65 ratio, rep 1":1.32,"nuclear/cytoplasmic p65 ratio, rep 2":1.28,"low cell count flag":"enough cells to score","outcome":"inactive"}
